According to PubChem BioAssay AID188 (DTP/NCI, 2004):
The mice bore no tumour; each value counts animals alive of those treated. Counts of survivors are from the toxicity check (mostly the fifth day) where no day follows; animals may have died later. Schedules are NCI's codes, taken here to give the interval after Q, in days (D) or hours (H), and the number of doses after X. Some entries were tested several times; the values are given in rising order.

System: CD2F1 mice, nontumored, toxicity/survival
Assay: NCI In Vivo Anticancer Drug Screen. Data for tumor model Nontumored Animals (Toxicity Test) in CD2F1 (CDF1) mice
[1] = dose: 1.0 mg/kg/injection, schedule: Q01DX001 (ip), vehicle: saline
[2] = dose: 0.5 mg/kg/injection, schedule: Q04DX003 (ip), vehicle: saline
[3] = dose: 1.0 mg/kg/injection, schedule: Q04DX003 (ip), vehicle: saline
[4] = dose: 2.0 mg/kg/injection, schedule: Q04DX003 (ip), vehicle: saline
[5] = dose: 4.0 mg/kg/injection, schedule: Q04DX003 (ip), vehicle: saline

In the case of `CCN(CC)c1ccc(C(C#N)(c2ccc(N(CC)Cc3cccc(S(=O)(=O)O)c3)cc2)c2ccc(N(CC)Cc3cccc(S(=O)(=O)O)c3)cc2)cc1`, the survivor count (dose: 25.0 mg/kg/injection, schedule: Q01DX005 (ip), vehicle: saline with Tween-80) was 3 of 3, the survivor count (dose: 50.0 mg/kg/injection, schedule: Q01DX001 (ip), vehicle: other) was 3 of 3 and the survivor count (dose: 50.0 mg/kg/injection, schedule: Q01DX005 (ip), vehicle: saline with Tween-80) was 3 of 3. For the same compound, the survivor count (dose: 100.0 mg/kg/injection, schedule: Q01DX001 (ip), vehicle: other) was 3 of 3, the survivor count (dose: 100.0 mg/kg/injection, schedule: Q01DX005 (ip), vehicle: saline with Tween-80) was 3 of 3 and the survivor count (dose: 200.0 mg/kg/injection, schedule: Q01DX001 (ip), vehicle: other) was 3 of 3. The survivor count (dose: 200.0 mg/kg/injection, schedule: Q01DX005 (ip), vehicle: saline with Tween-80) was 3 of 3 and the survivor count (dose: 400.0 mg/kg/injection, schedule: Q01DX001 (ip), vehicle: other) was 2 of 3.
In the case of `CC12CCC(O)CC1CCC1C2CCC2(C)C(c3ccc(=O)oc3)CC3OC312` (stereo unspecified), the survivor count [1] was 2 of 2, the survivor count (dose: 10.0 mg/kg/injection, schedule: Q01DX001 (ip), vehicle: saline) was 0 of 2 and the survivor count (dose: 100.0 mg/kg/injection, schedule: Q01DX001 (ip), vehicle: saline) was 0 of 2.
`Cc1cnc(/C=N\NC(N)=S)c2cccc(N)c12` was tested, and the survivor count (dose: 4.5 mg/kg/injection, schedule: Q03HX024 (ip), vehicle: Klucel (hydroxypropylcellulose) (HPC)) was 5 of 5, the survivor count (dose: 6.7 mg/kg/injection, schedule: Q03HX024 (ip), vehicle: Klucel (hydroxypropylcellulose) (HPC)) was 6 of 6 and the survivor count (dose: 10.0 mg/kg/injection, schedule: Q03HX024 (ip), vehicle: Klucel (hydroxypropylcellulose) (HPC)) was 6 of 6. The survivor count (dose: 15.0 mg/kg/injection, schedule: Q03HX024 (ip), vehicle: Klucel (hydroxypropylcellulose) (HPC)) was 0 of 6, the survivor count (dose: 22.5 mg/kg/injection, schedule: Q03HX024 (ip), vehicle: Klucel (hydroxypropylcellulose) (HPC)) was 1 of 6 and the survivor count (dose: 33.8 mg/kg/injection, schedule: Q03HX024 (ip), vehicle: Klucel (hydroxypropylcellulose) (HPC)) was 1 of 6.
In the case of `CCCCCCCCN(C)N=Nc1ccc(C(N)=O)cc1`, the survivor count (dose: 79.0 mg/kg/injection, schedule: Q01DX009 (ip), vehicle: Klucel (hydroxypropylcellulose) (HPC)) was 10 of 10, the survivor count (dose: 118.0 mg/kg/injection, schedule: Q01DX009 (ip), vehicle: Klucel (hydroxypropylcellulose) (HPC)) was 10 of 10 and the survivor count (dose: 177.0 mg/kg/injection, schedule: Q01DX009 (ip), vehicle: Klucel (hydroxypropylcellulose) (HPC)) was 10 of 10. For the same compound, the survivor count (dose: 266.0 mg/kg/injection, schedule: Q01DX009 (ip), vehicle: Klucel (hydroxypropylcellulose) (HPC)) was 8 of 8 and the survivor count (dose: 400.0 mg/kg/injection, schedule: Q01DX009 (ip), vehicle: Klucel (hydroxypropylcellulose) (HPC)) was 8 of 8.
`COc1cc2c3c(c1)-c1c(ccc(OC)c1OC)CC3N(CCCl)CC2` (stereo unspecified) was tested, and the survivor count (dose: 1.0 mg/kg/injection, schedule: Q01DX001 (ip), vehicle: water) was 2 of 2, the survivor count (dose: 10.0 mg/kg/injection, schedule: Q01DX001 (ip), vehicle: water) was 2 of 2 and the survivor count (dose: 100.0 mg/kg/injection, schedule: Q01DX001 (ip), vehicle: water) was 2 of 2.
In the case of `CC[C@]1(O)C[C@H]2CN(CCc3c([nH]c4ccccc34)[C@@](C(=O)OC)(c3cc4c(cc3OC)N(C=O)[C@H]3[C@@](O)(C(=O)OC)[C@H](OC(C)=O)[C@]5(CC)C=CCN6CC[C@]43[C@@H]65)C2)C1`, the survivor count (dose: 0.13 mg/kg/injection, schedule: Q04DX003 (ip), vehicle: saline) was 5 of 5, the survivor count (dose: 0.25 mg/kg/injection, schedule: Q04DX003 (ip), vehicle: saline) was 4 of 4 and 5 of 5 and the survivor count (dose: 0.37 mg/kg/injection, schedule: Q04DX002 (ip), vehicle: saline) was 4 of 4. For the same compound, the survivor count [2] was 4 of 4 and 5 of 5, the survivor count (dose: 0.75 mg/kg/injection, schedule: Q04DX002 (ip), vehicle: saline) was 4 of 4 and the survivor count (dose: 1.0 mg/kg/injection, schedule: Q01DX009 (ip), vehicle: saline) was 10 of 10. For the same compound, the survivor count [3] was 10 of 10, 4 of 4, 5 of 5, 9 of 9, the survivor count (dose: 1.5 mg/kg/injection, schedule: Q01DX009 (ip), vehicle: saline) was 10 of 10 and the survivor count (dose: 1.5 mg/kg/injection, schedule: Q04DX002 (ip), vehicle: saline) was 4 of 4. The survivor count (dose: 1.5 mg/kg/injection, schedule: Q04DX003 (ip), vehicle: saline) was 10 of 10, the survivor count [4] was 4 of 4 and 5 of 5 and the survivor count (dose: 3.0 mg/kg/injection, schedule: Q04DX002 (ip), vehicle: saline) was 4 of 4. The survivor count [5] was 4 of 4.
In the case of `Nc1nc(N)nc(CCC(Cl)(Cl)Cl)n1`, the survivor count (dose: 1.0 mg/kg/injection, schedule: Q01DX001 (ip), vehicle: distilled water + Tween-80) was 2 of 2, the survivor count (dose: 10.0 mg/kg/injection, schedule: Q01DX001 (ip), vehicle: distilled water + Tween-80) was 2 of 2 and the survivor count (dose: 100.0 mg/kg/injection, schedule: Q01DX001 (ip), vehicle: distilled water + Tween-80) was 2 of 2.
`C1CN1c1nc(N2CC2)nc(N2CC2)n1` was tested, and the survivor count (dose: 0.06 mg/kg/injection, schedule: Q03HX008 (ip), vehicle: saline) was 8 of 8, the survivor count (dose: 0.06 mg/kg/injection, schedule: Q03HX016 (ip), vehicle: saline) was 8 of 8 and the survivor count (dose: 0.06 mg/kg/injection, schedule: Q03HX024 (ip), vehicle: saline) was 8 of 8. For the same compound, the survivor count (dose: 0.13 mg/kg/injection, schedule: Q03HX008 (ip), vehicle: saline) was 8 of 8, the survivor count (dose: 0.13 mg/kg/injection, schedule: Q03HX016 (ip), vehicle: saline) was 8 of 8 and the survivor count (dose: 0.13 mg/kg/injection, schedule: Q03HX024 (ip), vehicle: saline) was 8 of 8. For the same compound, the survivor count (dose: 0.25 mg/kg/injection, schedule: Q01DX005 (ip), vehicle: saline) was 8 of 8, the survivor count (dose: 0.25 mg/kg/injection, schedule: Q03HX008 (ip), vehicle: saline) was 8 of 8 and the survivor count (dose: 0.25 mg/kg/injection, schedule: Q03HX016 (ip), vehicle: saline) was 8 of 8. The survivor count (dose: 0.25 mg/kg/injection, schedule: Q03HX024 (ip), vehicle: saline) was 8 of 8, the survivor count (dose: 0.5 mg/kg/injection, schedule: Q01DX001 (ip), vehicle: saline) was 8 of 8 and the survivor count (dose: 0.5 mg/kg/injection, schedule: Q01DX005 (ip), vehicle: saline) was 8 of 8. For the same compound, the survivor count (dose: 0.5 mg/kg/injection, schedule: Q03HX008 (ip), vehicle: saline) was 8 of 8, the survivor count (dose: 0.5 mg/kg/injection, schedule: Q03HX016 (ip), vehicle: saline) was 8 of 8 and the survivor count (dose: 0.5 mg/kg/injection, schedule: Q03HX024 (ip), vehicle: saline) was 8 of 8. The survivor count [2] was 8 of 8, the survivor count (dose: 0.5 mg/kg/injection, schedule: Q08DX002 (ip), vehicle: saline) was 8 of 8 and the survivor count (dose: 0.5 mg/kg/injection, schedule: Q11DX002 (ip), vehicle: saline) was 8 of 8. For the same compound, the survivor count [1] was 8 of 8, the survivor count (dose: 1.0 mg/kg/injection, schedule: Q01DX005 (ip), vehicle: saline) was 8 of 8 and the survivor count [3] was 8 of 8. The survivor count (dose: 1.0 mg/kg/injection, schedule: Q08DX002 (ip), vehicle: saline) was 8 of 8, the survivor count (dose: 1.0 mg/kg/injection, schedule: Q11DX002 (ip), vehicle: saline) was 8 of 8 and the survivor count (dose: 2.0 mg/kg/injection, schedule: Q01DX001 (ip), vehicle: saline) was 8 of 8. For the same compound, the survivor count (dose: 2.0 mg/kg/injection, schedule: Q01DX005 (ip), vehicle: saline) was 8 of 8, the survivor count [4] was 8 of 8 and the survivor count (dose: 2.0 mg/kg/injection, schedule: Q08DX002 (ip), vehicle: saline) was 8 of 8. The survivor count (dose: 2.0 mg/kg/injection, schedule: Q11DX002 (ip), vehicle: saline) was 8 of 8, the survivor count (dose: 4.0 mg/kg/injection, schedule: Q01DX001 (ip), vehicle: saline) was 6 of 8 and the survivor count [5] was 7 of 8. The survivor count (dose: 4.0 mg/kg/injection, schedule: Q08DX002 (ip), vehicle: saline) was 7 of 8 and the survivor count (dose: 4.0 mg/kg/injection, schedule: Q11DX002 (ip), vehicle: saline) was 7 of 8.
For `CC(=O)OC1C(NC(=O)N(CCCl)N=O)C(OC(C)=O)C(OC(C)=O)C(NC(=O)N(CCCl)N=O)C1OC(C)=O` (stereo unspecified), the survivor count (dose: 20.0 mg/kg/injection, schedule: Q01DX001 (ip), vehicle: saline with Tween-80) was 9 of 10, the survivor count (dose: 30.0 mg/kg/injection, schedule: Q01DX001 (ip), vehicle: saline with Tween-80) was 10 of 10 and the survivor count (dose: 40.0 mg/kg/injection, schedule: Q01DX001 (ip), vehicle: saline with Tween-80) was 10 of 10. For the same compound, the survivor count (dose: 60.0 mg/kg/injection, schedule: Q01DX001 (ip), vehicle: saline with Tween-80) was 10 of 10, the survivor count (dose: 90.0 mg/kg/injection, schedule: Q01DX001 (ip), vehicle: saline with Tween-80) was 10 of 10 and the survivor count (dose: 130.0 mg/kg/injection, schedule: Q01DX001 (ip), vehicle: saline with Tween-80) was 10 of 10. The survivor count (dose: 200.0 mg/kg/injection, schedule: Q01DX001 (ip), vehicle: saline with Tween-80) was 10 of 10 and the survivor count (dose: 300.0 mg/kg/injection, schedule: Q01DX001 (ip), vehicle: saline with Tween-80) was 9 of 10.
